The chains behind the UniProt entries cited, without tags or fusion partners. Where a name states a change or a piece, a line headed by the entry shows the natural chain unless it says otherwise.
UniProt P05455: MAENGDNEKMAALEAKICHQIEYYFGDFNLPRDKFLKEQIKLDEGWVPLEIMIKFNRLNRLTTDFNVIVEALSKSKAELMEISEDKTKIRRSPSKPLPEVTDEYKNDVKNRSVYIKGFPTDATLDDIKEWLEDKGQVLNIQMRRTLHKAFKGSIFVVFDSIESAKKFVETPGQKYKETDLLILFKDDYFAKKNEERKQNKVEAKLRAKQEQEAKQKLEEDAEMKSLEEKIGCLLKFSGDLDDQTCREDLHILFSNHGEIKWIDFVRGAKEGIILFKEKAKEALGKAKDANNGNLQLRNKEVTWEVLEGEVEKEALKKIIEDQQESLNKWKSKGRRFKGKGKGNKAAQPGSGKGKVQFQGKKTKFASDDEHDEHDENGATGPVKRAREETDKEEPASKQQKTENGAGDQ

According to PMC9705548:

Key:
[1] = target: T1, Mlp1 (Tetrahymena thermophila) (UniProt Q23RK6); test: competition with a labelled probe; settings: EMSA: 20 mM Tris-HCl pH 7.4, 100 mM KCl, 1 mM EDTA, 5 mM beta-mercaptoethanol, 10% glycerol, ~0.1 nM RNA refolded from 95 C, 30 min at 30 C, 8% native PAGE at 4 C, recombinant protein, residues 1-340, protein details: N-terminal 6xHis (pET28a)
T1 sequence (looked up): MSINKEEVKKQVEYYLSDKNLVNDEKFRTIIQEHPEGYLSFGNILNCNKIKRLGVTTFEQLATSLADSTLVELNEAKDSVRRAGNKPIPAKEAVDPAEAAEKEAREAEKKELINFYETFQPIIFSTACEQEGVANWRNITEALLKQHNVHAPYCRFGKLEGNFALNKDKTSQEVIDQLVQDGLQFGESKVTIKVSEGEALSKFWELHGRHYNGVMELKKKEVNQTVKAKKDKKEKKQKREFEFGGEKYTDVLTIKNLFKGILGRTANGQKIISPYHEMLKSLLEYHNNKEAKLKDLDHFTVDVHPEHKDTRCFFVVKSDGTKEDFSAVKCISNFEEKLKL

hLa (Homo sapiens) [2] = target: hLa (Homo sapiens) (UniProt P05455); test: competition with a labelled probe; settings: EMSA: 20 mM Tris-HCl pH 7.4, 100 mM KCl, 1 mM EDTA, 5 mM beta-mercaptoethanol, 10% glycerol, ~0.1 nM RNA refolded from 95 C, 30 min at 30 C, 8% native PAGE at 4 C, recombinant protein, protein details: 6xHis (encoded in reverse primer, pET28a)
hLa (Homo sapiens) [3] = target: hLa (Homo sapiens) (UniProt P05455); test: EMSA; settings: EMSA: 20 mM Tris-HCl pH 7.4, 100 mM KCl, 1 mM EDTA, 5 mM beta-mercaptoethanol, 10% glycerol; ~0.1 nM RNA refolded from 95 C; 30 min at 30 C; 8% native PAGE at 4 C; recombinant protein; protein details: 6xHis (encoded in reverse primer, pET28a); label: 5'-32P (unlabeled as competitor)
[4] = target: T2, Mlp1 1-250 (Tetrahymena thermophila) (UniProt Q23RK6); test: EMSA; settings: EMSA: 20 mM Tris-HCl pH 7.4, 100 mM KCl, 1 mM EDTA, 5 mM beta-mercaptoethanol, 10% glycerol; ~0.1 nM RNA refolded from 95 C; 30 min at 30 C; 8% native PAGE at 4 C; recombinant protein; residues 1-250; protein details: N-terminal 6xHis (pET28a); label: 32P-UTP body label (unlabeled as competitor); letters put together from the description
T2 sequence (looked up): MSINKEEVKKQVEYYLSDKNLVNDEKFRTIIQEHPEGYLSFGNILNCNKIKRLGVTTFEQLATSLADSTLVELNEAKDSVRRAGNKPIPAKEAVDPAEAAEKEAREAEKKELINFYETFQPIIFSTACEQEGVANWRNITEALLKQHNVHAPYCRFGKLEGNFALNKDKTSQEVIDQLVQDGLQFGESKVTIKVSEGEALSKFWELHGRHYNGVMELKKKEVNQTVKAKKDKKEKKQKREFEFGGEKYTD

[5] = target: T1, Mlp1 (Tetrahymena thermophila); test: EMSA; settings: EMSA: 20 mM Tris-HCl pH 7.4, 100 mM KCl, 1 mM EDTA, 5 mM beta-mercaptoethanol, 10% glycerol; ~0.1 nM RNA refolded from 95 C; 30 min at 30 C; 8% native PAGE at 4 C; recombinant protein; residues 1-340; protein details: N-terminal 6xHis (pET28a); label: 32P-UTP body label; letters put together from the description
[6] = label: 5'-32P (unlabeled as competitor)

CUGCUGCCCC [4C]
binding result [1]: binds more weakly

CUGCUGUCUU [U-3C]
binding result (hLa (Homo sapiens) [2]): binds more weakly

CUGCUGUUCU [U-2C]
binding result (hLa (Homo sapiens) [2]): binds more weakly

CUGCUGUUUC [U-1C]
binding result (hLa (Homo sapiens) [2]): binds more weakly

CUGCUGUUUU [4U (CUGCUGUUUU-3'OH)]
binding result (hLa (Homo sapiens) [3]): binds
binding result [1, 6]: binds
binding result (hLa (Homo sapiens) [2]; [6]): binds

GAUGAAGUGGCCGAGCGGUCUAAGGCGGUAGAUUAAGGCUCUAUUCCGAAAGGGCGCGAGUUCGAAUCUCGCCUUCAUCA [mature tRNA LeuAAG]
binding result [4]: binds more weakly
binding result (hLa (Homo sapiens) [2]; label: 32P-UTP body label (unlabeled as competitor), letters put together from the description): binds more weakly

GGUUCCAUAGUAUAGUGGUUAGUACUGGGGACUUUAAAUCCCUUGACCUGGGUUCGAAUCCCAGUGGGACCU [mature tRNA GlnUUA]
binding result [5]: binds more weakly

UUUUUUUUUU [U10-3'-P]
binding result ([1]; 3'-phosphate): binds more weakly
binding result (hLa (Homo sapiens) [2]; 3'-phosphate): binds more weakly

UUUUUUUUUU [U10-3'OH]
binding result [1, 6]: binds
binding result (hLa (Homo sapiens) [2]; [6]): binds

For some assays here: The comparison behind a weaker result is the experiment's own reference, which may not be listed here. For some assays here: Tags and fusion partners may be left off the protein sequences shown. For some assays here: The exact form of at least one protein or probe is not confirmed. For some assays here: At least one verdict was read from the data and is not stated in words by the source.
